# Source: the supplement of paper PMC8728848
# This is one part of the list.
# Tests used:
# Assay in all cases: glycan array binding signal (z-score within array); higher = stronger binding
# Conditions in all cases: glycan notation: IUPAC condensed, linker removed
# [1] = biological target: Man(a1-2)Man(a1-3)[Man(a1-2)Man(a1-6)]Man
# In short: (§1)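 Glycan array data were curated from 3228 arrays in the Consortium for Functional Glycomics database and kept only where the protein sequence was available. Glycan names were converted to IUPAC-condensed notation, and columns mapping to the same glycan were averaged. The binding signal is a within-array Z-score, averaged across arrays of the same protein sequence at different concentrations or buffers and across linkers. Negative Z-scores can be read as non-binding.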
# [2] = biological target: Man(a1-2)Man(a1-3)[Man(a1-2)Man(a1-6)]Man(a1-6)[Man(a1-2)Man(a1-2)Man(a1-3)]Man
# In short: as §1
# [3] = biological target: Man(a1-2)Man(a1-3)[Man(a1-2)Man(a1-6)]Man(a1-6)[Man(a1-2)Man(a1-2)Man(a1-3)]Man(b1-4)GlcNAc(b1-4)GlcNAc
# In short: as §1
# [4] = biological target: Man(a1-2)Man(a1-3)[Man(a1-6)]Man(a1-6)[Man(a1-2)Man(a1-3)]Man(b1-4)GlcNAc(b1-4)GlcNAc
# In short: as §1
# [5] = biological target: Man(a1-2)Man(a1-6)[Man(a1-3)]Man(a1-6)[Man(a1-2)Man(a1-2)Man(a1-3)]Man
# In short: as §1
# [6] = biological target: Man(a1-2)Man(a1-6)[Man(a1-3)]Man(a1-6)[Man(a1-2)Man(a1-2)Man(a1-3)]Man(b1-4)GlcNAc(b1-4)GlcNAc
# In short: as §1
# Man(a1-3)[Man(a1-6)]Man = biological target: Man(a1-3)[Man(a1-6)]Man
# In short: as §1
# [7] = biological target: Man(a1-3)[Man(a1-6)]Man(a1-6)[Man(a1-2)Man(a1-3)]Man(b1-4)GlcNAc(b1-4)GlcNAc
# In short: as §1
# [8] = biological target: Man(a1-3)[Man(a1-6)]Man(a1-6)[Man(a1-3)]Man
# In short: as §1
# [9] = biological target: Man(a1-3)[Man(a1-6)]Man(a1-6)[Man(a1-3)]Man(b1-4)GlcNAc(b1-4)GlcNAc
# In short: as §1
# [10] = biological target: Man(a1-3)[Man(a1-6)]Man(b1-4)GlcNAc(b1-4)GlcNAc
# In short: as §1
# [11] = biological target: Man(a1-3)[Man(a1-6)]Man(b1-4)GlcNAc(b1-4)[Fuc(a1-6)]GlcNAc
# In short: as §1
# Man(a1-6)Man = biological target: Man(a1-6)Man
# In short: as §1
# Man(b1-4)GlcNAc = biological target: Man(b1-4)GlcNAc
# In short: as §1
# MurNAc(b1-4)GlcNAc = biological target: MurNAc(b1-4)GlcNAc
# In short: as §1
# Neu5Ac(a2-3)Gal = biological target: Neu5Ac(a2-3)Gal
# In short: as §1
# [12] = biological target: Neu5Ac(a2-3)Gal(b1-3)GalNAc
# In short: as §1
# [13] = biological target: Neu5Ac(a2-3)Gal(b1-3)GalNAc(b1-3)Gal(a1-4)Gal(b1-4)Glc
# In short: as §1
# [14] = biological target: Neu5Ac(a2-3)Gal(b1-3)GalNAc(b1-4)Gal(b1-4)Glc
# In short: as §1
# [15] = biological target: Neu5Ac(a2-3)Gal(b1-3)GalNAc(b1-4)[Neu5Ac(a2-3)]Gal(b1-4)Glc
# In short: as §1
# [16] = biological target: Neu5Ac(a2-3)Gal(b1-3)GalNAc(b1-4)[Neu5Ac(a2-8)Neu5Ac(a2-3)]Gal(b1-4)Glc
# In short: as §1
# [17] = biological target: Neu5Ac(a2-3)Gal(b1-3)GalNAc6S
# In short: as §1
# [18] = biological target: Neu5Ac(a2-3)Gal(b1-3)GlcNAc
# In short: as §1
# [19] = biological target: Neu5Ac(a2-3)Gal(b1-3)GlcNAc(b1-2)Man
# In short: as §1
# [20] = biological target: Neu5Ac(a2-3)Gal(b1-3)GlcNAc(b1-2)Man(a1-3)[GlcNAc(b1-4)][Neu5Ac(a2-3)Gal(b1-3)GlcNAc(b1-2)Man(a1-6)]Man(b1-4)GlcNAc(b1-4)GlcNAc
# In short: as §1
# [21] = biological target: Neu5Ac(a2-3)Gal(b1-3)GlcNAc(b1-2)Man(a1-3)[Neu5Ac(a2-3)Gal(b1-3)GlcNAc(b1-2)Man(a1-6)]Man(b1-4)GlcNAc(b1-4)GlcNAc
# In short: as §1
# [22] = biological target: Neu5Ac(a2-3)Gal(b1-3)GlcNAc(b1-2)[Neu5Ac(a2-3)Gal(b1-3)GlcNAc(b1-4)]Man(a1-6)[Neu5Ac(a2-3)Gal(b1-3)GlcNAc(b1-2)Man(a1-3)]Man(b1-4)GlcNAc(b1-4)GlcNAc
# In short: as §1
# [23] = biological target: Neu5Ac(a2-3)Gal(b1-3)GlcNAc(b1-3)Gal(b1-3)GlcNAc
# In short: as §1
# [24] = biological target: Neu5Ac(a2-3)Gal(b1-3)GlcNAc(b1-3)Gal(b1-4)GlcNAc
# In short: as §1
# [25] = biological target: Neu5Ac(a2-3)Gal(b1-3)GlcNAc(b1-3)GalNAc
# In short: as §1
binder,measurement,setting,value
"CcfD (Bacteroides fragilis), Q5L9G4 (protein) MKKQNSIYTLLIALLCFVSSCDYLGVSDQLAGGLQNTEQVFDNVSYTKRWYANVFAGIPDYSGINSVNVGAFKNPWTGMCDELVVGYGNSSKYNNSDRNAANMGFHRYGDCYKYIRQANIFLQKAHPIMTTGTQGDQLLEDELTQMKANVRFMRAFYHYLLFEQYGPIILVKDKIYNATEDQDVPRNTVDEVIEYIDSELTAVASELTQEPIFEDKDYRAWPTKGVALAVRAKLWLYAASPLLNGGYREALSVTNPDGTRLFPDYDAGKWEKALAACKDFIDYAEAGRYELYKEYKDDNGAVIDPDKSVYNLFQKYTHEIIWATANNDWGGMNGDAFDRRIAPRCEKNGLGSTGVTQELVDAFYMKDGFPVSATAYLPQSTLYQEEGYGTYKDQNDNFSKKYTNVTVSNRYLNREPRFYNTVFFNGRQWPVSCNQVLFYNGGNSGVQEGQATLTGYMLFKRFNRSVSLTNPGVASQFRPSIIFRLADFYLMYAEAANEVNPNDARVLKYLNLVRERAGLPDIETLNPAIRGNQELQRAAIQRERQIELATEGQRYFDVRRWMIADKNGEGRQNGYVHGMNVRGESNDKEDFNRIVEASQIVFNRKMYLYPMPDSEMRKTKNLVQNPGW",glycan array binding signal (z-score),[1],-0.404
same,glycan array binding signal (z-score),[2],2.93
same,glycan array binding signal (z-score),[3],-0.102
same,glycan array binding signal (z-score),[4],-0.496
same,glycan array binding signal (z-score),[5],-0.778
same,glycan array binding signal (z-score),[6],-0.667
same,glycan array binding signal (z-score),Man(a1-3)[Man(a1-6)]Man,-0.253
same,glycan array binding signal (z-score),[7],0.614
same,glycan array binding signal (z-score),[8],-0.837
same,glycan array binding signal (z-score),[9],-0.181
same,glycan array binding signal (z-score),[10],-0.312
same,glycan array binding signal (z-score),[11],0.745
same,glycan array binding signal (z-score),Man(a1-6)Man,-1.12
same,glycan array binding signal (z-score),Man(b1-4)GlcNAc,1.19
same,glycan array binding signal (z-score),MurNAc(b1-4)GlcNAc,1.37
same,glycan array binding signal (z-score),Neu5Ac(a2-3)Gal,-0.883
same,glycan array binding signal (z-score),[12],0.795
same,glycan array binding signal (z-score),[13],-0.765
same,glycan array binding signal (z-score),[14],-0.548
same,glycan array binding signal (z-score),[15],0.831
same,glycan array binding signal (z-score),[16],-1.11
same,glycan array binding signal (z-score),[17],-0.634
same,glycan array binding signal (z-score),[18],-0.841
same,glycan array binding signal (z-score),[19],-0.66
same,glycan array binding signal (z-score),[20],1.28
same,glycan array binding signal (z-score),[21],-0.896
same,glycan array binding signal (z-score),[22],2.28
same,glycan array binding signal (z-score),[23],-0.647
same,glycan array binding signal (z-score),[24],-0.91
same,glycan array binding signal (z-score),[25],-0.371

# At a glance, part of the list above:
binder,measurement,setting,value
"CcfD (Bacteroides fragilis), Q5L9G4 (protein) MKKQNSIYTLLIALLCFVSSCDYLGVSDQLAGGLQNTEQVFDNVSYTKRWYANVFAGIPDYSGINSVNVGAFKNPWTGMCDELVVGYGNSSKYNNSDRNAANMGFHRYGDCYKYIRQANIFLQKAHPIMTTGTQGDQLLEDELTQMKANVRFMRAFYHYLLFEQYGPIILVKDKIYNATEDQDVPRNTVDEVIEYIDSELTAVASELTQEPIFEDKDYRAWPTKGVALAVRAKLWLYAASPLLNGGYREALSVTNPDGTRLFPDYDAGKWEKALAACKDFIDYAEAGRYELYKEYKDDNGAVIDPDKSVYNLFQKYTHEIIWATANNDWGGMNGDAFDRRIAPRCEKNGLGSTGVTQELVDAFYMKDGFPVSATAYLPQSTLYQEEGYGTYKDQNDNFSKKYTNVTVSNRYLNREPRFYNTVFFNGRQWPVSCNQVLFYNGGNSGVQEGQATLTGYMLFKRFNRSVSLTNPGVASQFRPSIIFRLADFYLMYAEAANEVNPNDARVLKYLNLVRERAGLPDIETLNPAIRGNQELQRAAIQRERQIELATEGQRYFDVRRWMIADKNGEGRQNGYVHGMNVRGESNDKEDFNRIVEASQIVFNRKMYLYPMPDSEMRKTKNLVQNPGW",glycan array binding signal (z-score),[6],-0.667
same,glycan array binding signal (z-score),Man(a1-3)[Man(a1-6)]Man,-0.253
